From paper PMC4935812
Substitutions are numbered along the chain they refer to. Results are given in words; binding and its absence hold for the method and conditions named. In cells and extracts the contact can be indirect. A result given as binding can be weak or reduced; the word gives no strength. Tags and fused reporters may be left off the sequences shown.

Legend:
[1] = target: T1, Flag–SRSF3-WT (human) (UniProt P84103); assay: co-IP; Flag agarose beads, 1–2 mg lysate, overnight at 4 °C; IP buffer 50 mM Tris-Cl pH 7.5, 150 mM NaCl, 1 mM EDTA, 1% Triton X-100; cells mock or arsenite treated; western blot of the precipitates
T1 sequence: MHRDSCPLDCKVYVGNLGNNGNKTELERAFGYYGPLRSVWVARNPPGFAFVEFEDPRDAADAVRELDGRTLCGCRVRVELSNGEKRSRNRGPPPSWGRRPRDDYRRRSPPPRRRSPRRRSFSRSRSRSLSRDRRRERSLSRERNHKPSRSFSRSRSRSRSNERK

[2] = target: T2, Flag–SRSF3–K85R (human) (UniProt P84103); assay: as above
T2 sequence: T1 sequence with K85R

binding [1]: binds
binding [2]: binds
Substance: eIF4G
